One sequence from doi:10.1101/2020.05.14.095554 can be followed below.

Protein sequences, listed by entry. Tags and fused reporters are not part of them.
UniProt P28033: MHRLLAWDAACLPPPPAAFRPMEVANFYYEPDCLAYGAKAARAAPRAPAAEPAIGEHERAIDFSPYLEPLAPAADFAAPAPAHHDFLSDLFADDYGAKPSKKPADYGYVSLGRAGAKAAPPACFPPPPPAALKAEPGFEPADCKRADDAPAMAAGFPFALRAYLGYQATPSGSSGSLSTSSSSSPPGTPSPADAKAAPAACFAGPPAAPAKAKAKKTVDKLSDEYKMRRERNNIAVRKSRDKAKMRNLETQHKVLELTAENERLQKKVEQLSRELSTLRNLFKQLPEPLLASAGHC

Results are given in words; binding and its absence hold for the method and conditions named. In cells and extracts the contact can be indirect.

The experiment addresses T1, B cell receptor associated protein 31 (UniProt Q61335).
T1 sequence: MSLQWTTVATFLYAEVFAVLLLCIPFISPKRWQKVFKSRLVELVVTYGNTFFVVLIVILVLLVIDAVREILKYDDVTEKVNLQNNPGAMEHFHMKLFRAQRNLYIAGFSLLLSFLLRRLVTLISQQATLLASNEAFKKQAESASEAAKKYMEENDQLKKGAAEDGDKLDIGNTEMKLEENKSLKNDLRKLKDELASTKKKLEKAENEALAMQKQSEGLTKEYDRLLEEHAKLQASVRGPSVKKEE
The experiment can be described thus: co-IP.

Turning to “CCAAT enhancer binding proteins β (from UniProt P28033 1-296)”, the binding result is “no binding”.
